Source: ChEMBL document CHEMBL3988442, “University of Dundee, Small-Polar-MMV Screening Library” (2021).

The filed quantity is “Percent Effect” (%).
The controls that fix the scale are not given in the record; negative values are as filed.
Compounds were drawn at random from those tested, without regard to their results.
Two or more numbers in one place are separate tests of the same structure; such repeats can differ widely.

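Viability assay of Plasmodium falciparum sporozoites; the read-out is not stated. The concentration is filed as 10 mM, unlikely as a test dose, so the dose is not known. Higher reads as lower viability (inferred: compounds with an IC50 in retests scored well above the rest). Strong results were mostly tested again. About 34,000 compounds were tested under these conditions; 0.84% (about 280) showed 50% or more at least once.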

| # | structure | effect |
|---|---|---|
| 1 | `O=C(Cc1ccc(-n2cccn2)cc1)N1CCCC(n2cccn2)C1` (stereo not given) | -2.775 |
| 2 | `O=C(O)C(F)(F)F.[H][C@@]12OCCN(Cc3ccco3)[C@@]1([H])CC[C@H]2OCC1CC1` | -2.483 |
| 3 | `[H][C@@]12C[C@@H](OC)C[C@]1([H])CN(C(=O)c1ccc(C)s1)C2` | -2.849 |
| 4 | `Cc1cnn(CC(C)NCc2csc(-c3cccs3)n2)c1` (stereo not given) | -54.69 & 46.1 & -32.55 |
| 5 | `CCOCC1CN(S(=O)(=O)N(C)C)Cc2cnn(C)c21.O=C(O)C(F)(F)F` (stereo not given) | -9.822 |
| 6 | `c1ccc(Cc2nnc(CN3CCCCC3Cn3cncn3)o2)cc1` (stereo not given) | 4.028 |
| 7 | `NS(=O)(=O)N1CCc2ccc(NC(=O)Cc3ccc(F)cc3)cc21` | -10.98 |
| 8 | `COc1cc(NC(=O)c2cc(C)sc2C)c(C(=O)N(C)C)cc1OC` | 4.362 |
| 9 | `CCN1CCN(c2ccc(CNC(=O)Cc3c(C)noc3C)cn2)CC1` | 9.727 |
| 10 | `[H][C@@]12CCN(Cc3nccs3)C[C@]1([H])O[C@@H](C(=O)NCC1CC1)C2` | 11.66 |
| 11 | `CCC(O)CNC(=O)c1coc(COc2ccc3sc(C)nc3c2)n1` (stereo not given) | 6.73 |
| 12 | `O=C(O)C(F)(F)F.O=C(O)C(F)(F)F.c1cncc(N2CCCn3nnc(CN4CCCCC4)c3C2)c1` | 3.853 |
| 13 | `COCCSCC(=O)NCc1ccnc(N(C)C)c1` | -1.93 |
| 14 | `CC(C)c1nc(C2CCCN2CCS(C)(=O)=O)no1` (stereo not given) | -3.044 |
| 15 | `O=C(O)C(F)(F)F.[H][C@]12CCN(CC(C)C)CC[C@@]1([H])S(=O)(=O)CCN2C(=O)c1ccccc1` | 0.5329 |
| 16 | `Cc1nc(CN2CCOC(c3nc(C(C)C)n[nH]3)C2)oc1C` (stereo not given) | -0.4112 |
| 17 | `c1cnnc(N2CCCC2CNc2ncnc3c2CCC3)c1` (stereo not given) | -4.773 |
| 18 | `O=C(c1ccc[nH]1)N1Cc2nccn2CC(COc2cccnc2)C1` (stereo not given) | 7.251 |
| 19 | `COCCc1noc(CN2CCc3nn(C(C)C)c(=O)cc3C2)n1` | 3.178 |
| 20 | `COCCO[C@H]1CCN(Cc2ccoc2)[C@H]1Cc1cccnc1` | 3.947 |
| 21 | `CC(O)CN1CCC(CNCc2ccc(S(C)(=O)=O)cc2)CC1` (stereo not given) | -1.771 |
| 22 | `CN(CCN1CCOCC1)C(=O)CCc1cccc(Cl)c1` | 4.397 |
| 23 | `CS(=O)(=O)c1nccn1Cc1ccc(F)cc1Cl` | -4.994 |
| 24 | `Cc1cnn(CC2CCCN2C(=O)c2c(C)noc2C)c1` (stereo not given) | -5.476 |
| 25 | `O=C(c1c[nH]c(=O)[nH]c1=O)N1CCCC(c2cnccn2)C1` (stereo not given) | 3.013 |
| 26 | `CCn1c(CN(C)C)nnc1C1CCN(Cc2cccc(F)c2F)CC1` | -1.842 |
| 27 | `COc1ccc(-c2cc3cccn(CC(=O)N4CCOCC4)c-3n2)cc1` | 0.8117 |
| 28 | `CC(C)(C)SCC(=O)NCCc1csc(N2CCCC2)n1` | -18.63 |
| 29 | `CCCS(=O)(=O)N1CCC2(CC1)CN(c1ccccn1)CCO2.O=C(O)C(F)(F)F` | 5.044 |
| 30 | `O=C(c1cscn1)N1CCC[C@]2(C[C@@H](OCC3CC3)CO2)C1` | -7.131 |
| 31 | `CCC1c2ccsc2CCN1C(=O)NCc1ccc(C)nc1` (stereo not given) | 6.154 |
| 32 | `Cc1ccc2oc(SCC(N)=O)nc2n1` | -1.181 |
| 33 | `CC(NC(=O)N(C)Cc1ccsc1)c1ccc2c(c1)OCO2` (stereo not given) | 6.925 |
| 34 | `CN(Cc1c(Cl)ccc2cccnc12)CC(C)(CO)CO` | -8.233 |
| 35 | `CC(NC(=O)Cn1ccc(=O)n(C)c1=O)c1ccccc1F` (stereo not given) | 2.768 |
| 36 | `CC(C)N(C)C(=O)CN1CCCC(c2ccc(C(=O)O)cc2)C1` (stereo not given) | 22.97 |
| 37 | `CNC(=O)c1ccc(C2CN(CC(=O)N(C)C)CCO2)nc1` (stereo not given) | 10.72 |
| 38 | `Cc1nc(CSCCC(=O)NCc2ccncc2)cs1` | 0.5254 |
| 39 | `CC(NCc1ccncc1)c1cc(F)ccc1N1CCN(C)CC1` (stereo not given) | 2.537 |
| 40 | `COCc1nccc(C2CCCN(Cc3cccc(F)c3)C2)n1` (stereo not given) | -19.2 |
| 41 | `Cc1nc(CN2CCCC(Nc3ncnc4ccsc34)C2)no1` (stereo not given) | -2.781 |
| 42 | `Cc1ccc(-c2cc(N)c(=O)n(CC(=O)NC3CCCCC3)n2)s1` | -8.175 |
| 43 | `CCc1nc(CN2CCCN(C(=O)CCCOC)CC2)cs1` | -6.287 |
| 44 | `O=C(c1cc(Cl)c2c(c1)OCO2)N1CCCC(n2ccnc2)C1` (stereo not given) | -15.44 |
| 45 | `CCCc1nnc(NCCn2nc(C)c(Cl)c2C)o1` | -9.077 |
| 46 | `CC(NC(=O)N1CCN(c2nccs2)CC1)c1nncn1C` (stereo not given) | 4.206 |
| 47 | `COC(=O)C(c1cc(F)ccc1F)N(C)C(=O)c1cnc(C)cn1` (stereo not given) | 5.737 |
| 48 | `[H][C@@]12CCCN1C[C@@H](CCSC)N(Cc1coc3ccc(Cl)cc3c1=O)C2` | 1.893 & -5.652 & 3.162 |
| 49 | `CCc1ccc(C(NCC(N)=O)C(C)(C)C)o1` (stereo not given) | -13.06 |
| 50 | `Cc1ncsc1C(=O)N(C)Cc1ccccc1` | 21.48 |
| 51 | `CN(CC(=O)N1CCCN(Cc2cscn2)CC1)c1cnccn1` | -0.7111 |
| 52 | `N#Cc1cc2c(nc1SCc1cc(O)nc(O)n1)CCCCC2` | 0.6699 |
| 53 | `O=C(CC1CCN(c2cccnn2)CC1)NC1CCOCC1` | -4.987 |
| 54 | `[H][C@]12CC[C@]([H])(CN(CC(=O)N(C)C)C1)N(C(=O)Cc1ccccc1Cl)C2` | -7.764 |
| 55 | `Cc1nc(O)c2nnn(C[C@H]3CCCN3C(=O)C3CCCC3)c2n1` | 5.365 |
| 56 | `NC(=O)C1CCN(C(=O)Cn2nc(-c3ccccc3)oc2=O)C1` (stereo not given) | -0.6543 |
| 57 | `CCOCc1nc2c(c(NCCNC(C)=O)n1)CCN(C(C)=O)CC2` | -9.588 |
| 58 | `Cc1noc(C)c1CCC(=O)N[C@@H]1CC[C@@H](Oc2cccnc2)[C@@H]1O` | 6.65 |
| 59 | `O=C(NCCNC(=O)c1scnc1Cl)c1ccccc1Cl` | 9.793 |
| 60 | `CCc1nnc2n1CCN(CC(=O)N1CCc3ccccc3C1)C2` | 11.55 |
| 61 | `COc1cccc(Cn2c(C3CCNCC3)cc3cccnc32)c1.Cl` | 6.713 |
| 62 | `[H][C@]12C[C@H](C(=O)NC)N(S(C)(=O)=O)[C@@]1([H])CN(C(=O)c1ccoc1)C2` | 4.047 |
| 63 | `COCC1CN(C(=O)Cc2ccccn2)Cc2c1cnn2CC1CC1.O=C(O)C(F)(F)F.O=C(O)C(F)(F)F` (stereo not given) | -7.378 |
| 64 | `CC(C)CC(=O)Nc1cccc(CNCc2cccs2)c1` | 4.915 |
| 65 | `Cc1cc(CN2CCN(C(=O)NC(C)c3cccnc3)CC2)no1` (stereo not given) | 6.852 |
| 66 | `CC(C)c1nc2n(n1)CC(NCc1nc(-c3ccsc3)no1)CC2` (stereo not given) | 1.561 |
| 67 | `O=C(CCCOc1ccc(F)cc1)N1CCCC(n2cccn2)C1` (stereo not given) | 2.081 |
| 68 | `CC(C)c1n[nH]c(C2CN(C(=O)c3cc(C(N)=O)cs3)CCO2)n1` (stereo not given) | -7.451 |
| 69 | `COc1cccc(-c2ccnc(C3CCNCC3)c2)c1` | 4.65 |
| 70 | `Cn1cc(C2CCCN2C(=O)c2cn(-c3ccccc3)nn2)cn1` (stereo not given) | 28.83 & -30.87 & -42.1 |
| 71 | `Cc1nnc2n1CCN(C(C(=O)NC1CC1)c1ccccc1)C2` (stereo not given) | 7.085 |
| 72 | `O=C(NCC(F)F)c1ccc(S(=O)(=O)NCCc2ccncc2)cc1` | 0.1538 |
| 73 | `Cc1ccc(NC(=O)CCc2ccco2)cc1N1CCOC1=O` | -8.788 |
| 74 | `Cc1ccccc1C(=O)Nc1ccc(OC2CCN(C)CC2)cc1` | -14.84 & -25.73 & 6.754 |
| 75 | `CCc1cc(NCc2cc3n(n2)CCCN(S(C)(=O)=O)C3)nc(C)n1` | 4.3 |
| 76 | `CC1CCN(S(=O)(=O)NCC2CCOc3ccccc3C2)CC1` (stereo not given) | -6.325 |
| 77 | `CC1CCCN(Cc2c(C3CC3)n(CC(=O)N(C)C)c3ncccc23)C1.Cl` (stereo not given) | 5.36 |
| 78 | `O=C(CCc1ccccc1)N1CCn2cc(CN3CCCC3)nc2C1` | -1.453 |
| 79 | `COCCN(C)C(=O)Cn1cccc(OC)c1=O` | -7.016 |
| 80 | `O=C(O)C1(Oc2ccccc2)CCN(c2ccncc2)CC1` | -1.667 |
| 81 | `COc1ccccc1CC(=O)N1CCCC(c2cc(C)[nH]n2)C1` (stereo not given) | 3.284 |
| 82 | `Cn1ccnc1CN(CCCO)C1CCCc2ccccc21` (stereo not given) | 3.044 |
| 83 | `Cc1cccc(C(=O)NCc2ccc(N3CCCCCC3)nc2)n1` | -1.077 |
| 84 | `O=C(N1CCCCC1)N1CCN(CC(O)c2ccccc2)CC1` (stereo not given) | 5.282 |
| 85 | `CC(C)n1cnnc1CN(C)C(=O)c1cnn2ccccc12` | -9.282 |

Some entries from above, unchanged:

{"structure": "Cc1cnn(CC2CCCN2C(=O)c2c(C)noc2C)c1", "stereo": "stereo not given", "effect": -5.476}
{"structure": "[H][C@@]12CCN(Cc3nccs3)C[C@]1([H])O[C@@H](C(=O)NCC1CC1)C2", "effect": 11.66}
{"structure": "CC(C)(C)SCC(=O)NCCc1csc(N2CCCC2)n1", "effect": -18.63}
{"structure": "CC(C)CC(=O)Nc1cccc(CNCc2cccs2)c1", "effect": 4.915}
{"structure": "[H][C@]12C[C@H](C(=O)NC)N(S(C)(=O)=O)[C@@]1([H])CN(C(=O)c1ccoc1)C2", "effect": 4.047}
{"structure": "Cc1ccc(-c2cc(N)c(=O)n(CC(=O)NC3CCCCC3)n2)s1", "effect": -8.175}
{"structure": "Cc1nnc2n1CCN(C(C(=O)NC1CC1)c1ccccc1)C2", "stereo": "stereo not given", "effect": 7.085}
{"structure": "Cc1nc(CN2CCOC(c3nc(C(C)C)n[nH]3)C2)oc1C", "stereo": "stereo not given", "effect": -0.4112}
{"structure": "COC(=O)C(c1cc(F)ccc1F)N(C)C(=O)c1cnc(C)cn1", "stereo": "stereo not given", "effect": 5.737}
{"structure": "CCc1cc(NCc2cc3n(n2)CCCN(S(C)(=O)=O)C3)nc(C)n1", "effect": 4.3}